Reference: PubChem BioAssay AID743121 (NCATS, 2013)
Screen: 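Knock-downs that sensitise breast cancer cells to camptothecin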 (primary screen). System: MDA-MB-231 cells, a human breast cancer line. Reagents: single siRNA against human genes, 20 nM siRNA (0.8 pmol per well). Time to read-out: 120 h (drug added 48 h after transfection, read 72 h later). Treatment: camptothecin 20 nM (about EC30) for 72 h; vehicle 0.1% DMSO in parallel plates. Measurement: 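CellTiter-Glo ATP signal, scaled to control siRNA as percent viability; sensitisation given as log2 of untreated divided by camptothecin-treated viability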. Direction: log2 vehicle/camptothecin viability: higher = stronger sensitisation to camptothecin. Rule for the call: 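Active genes have an RSA gene-level p-value below 0.001, computed from the ratios of their separate siRNAs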.
The deposit covers about 26,000 reagents; shown is an unselected part. Over the whole deposit, 167 (0.63%) were called active. 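Calls are per gene from RSA p-values that are not deposited; an individual active-marked siRNA can sensitise only weakly.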 The numbers tell different reagents against one gene apart. Further read-outs or replicates are left out here.

log2 vehicle/camptothecin viability, by gene symbol and reagent
GPR6: #1 -0.123 inactive; #2 -0.293 inactive; #3 -0.631 inactive; #4 0.166 inactive
TMEM87B: #1 -0.185 inactive; #2 -0.202 inactive; #3 -0.268 inactive
VTI1B: #1 -0.247 inactive; #2 -0.284 inactive; #3 -0.0707 inactive
ATAD2: #1 0.233 inactive; #2 -0.0968 inactive; #3 -0.113 inactive; #4 -0.16 inactive
AGBL3: #1 -0.117 inactive; #2 -0.307 inactive; #3 -0.0432 inactive
OSBP: #1 -0.591 inactive; #2 -0.429 inactive; #3 0.0788 inactive; #4 0.0626 inactive
BMP2: #1 -0.306 inactive; #2 0.175 inactive; #3 -0.207 inactive; #4 -0.00566 inactive
CD55: #1 -0.265 inactive; #2 0.0624 inactive; #3 -0.233 inactive
SHROOM1: #1 -0.133 inactive; #2 -0.204 inactive; #3 -0.21 inactive; #4 0.455 inactive
SLC9A5: #1 -0.182 inactive; #2 -0.0135 inactive; #3 -0.15 inactive; #4 -0.917 inactive
SLC9A7: #1 0.0379 inactive; #2 0.586 inactive; #3 -0.0989 inactive
TMPRSS6: #1 -0.158 inactive; #2 -0.296 inactive; #3 -0.177 inactive
NQO1: #1 -0.156 inactive; #2 -0.275 inactive; #3 -0.198 inactive; #4 0.136 inactive

Quoted from the entries so far for reference:
log2 vehicle/camptothecin viability, by gene symbol and reagent
SLC9A5: #2 -0.0135 inactive; #3 -0.15 inactive; #4 -0.917 inactive
SLC9A7: #1 0.0379 inactive; #2 0.586 inactive; #3 -0.0989 inactive
